The text below walks through data of PubChem BioAssay AID1508600 (Functional Genomics Laboratory (NCATS/FGL), 2020).

About 3,700 (7%) of roughly 53,000 sequences were called active.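 How the source made its calls: active means gene knockdowns whose robust z-score for IL-1 alpha signal is at least 2 or at most -2, so actives lie on both sides; inactive means the rest.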 The list shows a part of the results.

This assay is described as follows: Components of the Cytosolic LPS Sensing Pathway: Gene Identification via Genome-wide siRNA Screen.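 Further: robust z of the log signal after scaling to non-targeting control siRNA wells of the plate.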 The settings on record: RAW264.7 macrophages, IL-1a HTRF, actives lie on both sides, screened at 100 nM (by protocol), cells primed 5 h with Pam3CSK4 first. The method in brief: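 Mouse macrophage line RAW264.7 is transfected with siRNA (100 nM final), grown 48h, primed with TLR ligand Pam3CSK4 5 h and given intracellular LipidA 24 h. IL-1a in supernatant is read by HTRF and viability by luminescence.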
A general note: In TR-FRET formats the signal depends on donor and acceptor labels being close together.
Take GCUUUGUCAAUAAGCCCACTT against Shc1: the z-score is inactive: 1.98.

GGCACUUGAAUUUCUAAGUTT against Cbx5: the z-score was inactive: 0.0672.

Consider GCAGCAUCUACAUGCCGCUTT against Jade3, for which the z-score was inactive: 1.43.

For GGUACGAAGAAGACAAAAATT against Tnfsf9, the z-score is inactive: -0.0411.

GGUGAGAAGCCUUACCUCUTT against Zfp775: the z-score is inactive: -0.167.

GGUCAGCAUUUGCUAUGAATT against Tmsb15l: the z-score is active: -2.02.

As for CGUGAACUUUCAGAGCAGGTT against Rrp36, the z-score is inactive: 0.124.

Consider GCUAAUAUGCCACUGCCCGTT against Pls3, for which the z-score was inactive: 1.55.

Consider GGCCCAGUGACUAUGGAAUTT against Mpnd, for which the z-score is active: -2.68.

As for GCUAAAUUUGGGCACUAAUTT against Tvp23b, the z-score is inactive: -0.708.

With GGAUGGCCUGGCCUUCAAUTT against Sptb, the z-score was inactive: 1.85.

For GGUUGACCUGUGCUUUUCGTT against Arr3, the z-score was inactive: -0.625.

Consider GGAUCAGGAAGUAAACUUCTT against S100a6, for which the z-score was active: 2.57.

As to CCCGACGACUUAAAAUGGATT against Thap2, the z-score is inactive: -1.44.

As to GGAUGAGAAUGGCACCAGUTT against Prima1, the z-score was inactive: -1.4.

Turning to GCAAGUUGUCCUCACCUGUTT against Mynn, the z-score is inactive: 1.52.

CGUCUACUUAUCAAUAUGATT against Rbm5: the z-score is inactive: 0.112.

Consider GGACUUAACUGGACAAAAUTT against Nlrc4, for which the z-score is inactive: -0.118.

In the case of GCUUUUGAUAACUGCCUGGTT against Lce3f, the z-score was inactive: -0.385.

With GCAGAACCGCCAACCAACATT against Smarcc2, the z-score is active: -2.03.

For the sequence GCAUAAACAGGCAUUAAAUTT against Sav1, the z-score is inactive: 0.464.

Regarding GGAUCAGGAAGGAUUCGGATT against Zfp84, the z-score is inactive: -1.01.

Consider GCAGGAUUCAUGUAAAUAGTT against Pacs2, for which the z-score was inactive: -1.79.

For CCCAGGUGAUUCUGAUAUUTT against Rpl30, the z-score is inactive: 0.534.

With GGGUGAUGUGUUUAUUAAGTT against Crp, the z-score was inactive: 0.234.

On to GCAAUGGCAACAGAGAGGATT against Cbarp, for which the z-score was inactive: 0.288.

GGCAGUGCCAAUGAACAAGTT against Elob: the z-score was inactive: 0.591.

In the case of GGUAGAAAGUAUGGCUCCATT against Ppp1r9a, the z-score was inactive: -0.392.

In the case of CCUUUGCUCCACCUACACATT against Zcwpw1, the z-score is inactive: 0.892.

For GGACAAGAGGUACACAAACTT against Eif3d, the z-score was active: 2.83.
